Data taken from ChEMBL document CHEMBL3988442, “University of Dundee, Small-Polar-MMV Screening Library” (2021).

Mtb glucose medium: 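Growth of Mycobacterium tuberculosis over 3 days (7H9 medium with glucose and tyloxapol); the read-out is not stated. Tested at 50 µM. Direction is inferred from retests: higher values go with more growth inhibition. Of about 69,000 compounds tested this way, about 760 (1.1%) reached 50% or more in at least one test.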
Mtb cholesterol medium: 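Phenotypic screen: M. tuberculosis growth, cholesterol and DPPC medium, 4 days; the read-out is not stated. Tested at 50 µM. Direction is inferred from retests: higher values go with more growth inhibition. Size under these conditions: about 69,000 compounds, about 370 of them at 50% or above in at least one test.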

The filed quantity is “Percent Effect” (%). The record does not define 0% and 100%; most values in the screen are far below 50% and negative numbers occur (in some assays of this library far below -100). This is an unselected part of the compounds tested. Two or more numbers in one place are separate tests of the same structure; such repeats can differ widely.

Compound,Mtb glucose medium,Mtb cholesterol medium
COc1ccc(CNC(=O)CN2CCc3ccccc32)cc1,8.819 & -28.43,-45.15
Cc1cc(CSc2ccccn2)on1,-0.8233,-1.1
[H][C@]12CC[C@@]3(N=C(C)N(CC(C)C)C3=O)[C@@]1([H])CN(S(C)(=O)=O)C2,-16.38,-32.21
Cc1ccccc1-c1cc(C(=O)NCCN2CCCS2(=O)=O)[nH]n1,4.46,9.5
Cc1cc(S(=O)(=O)N(C)CC(N)=O)ccc1Br,20.26,13.26
CN(C)CC(=O)N1CCC2(CC1)Cc1ccccc1CN(C)C2=O.O=C(O)C(F)(F)F,-22.5,-22.45
CN(Cc1c(F)cccc1Cl)C(=O)Cn1cnc(C#N)n1,2.294,-11.41
CCOc1ncccc1C(=O)N1CCCC(n2nc(C)cc2C)C1 (centres unmarked),3.731,-11.92
CC(=O)c1ccc(NC(=O)NC(C)c2ccc3c(c2)CC(=O)N3)cc1 (centres unmarked),-9.383,-6.442 & -2.457
CCN(CCNC(=O)c1ccccc1Br)C1CC1,-13.03,-9.978
Cc1ccc(NC2CCN(C(=O)c3cccc4cccnc34)CC2)nn1,-1.616,-13.07
O=C(c1cccc(-c2ncc[nH]2)c1)N1CC[C@H](CO)[C@@H](O)C1,21.45,-5.697
COCCS(=O)(=O)NC(=O)c1nnn(-c2ccc(F)cc2)c1C1CC1,-56.32 & -10.9,-42.85
COc1cccc([C@@H]2N[C@H](c3nccs3)Cc3ccsc32)c1OC,23.52,18.38 & 25.1
COC(=O)Cn1c(=O)cc(C(F)F)c2c(C)nn(CC(F)F)c21,30.77,14.48
O=C(O)C(F)(F)F.[H][C@]12CCC[C@@]1(COCc1ccccn1)CN(C(=O)c1ccnnc1)C2,-13.64,-18.95
CC(NC(=O)Cn1ccc2sccc2c1=O)c1ccccc1 (centres unmarked),-5.63,-8.373
CCN(CC1CCOC1)C(=O)Nc1ccc(OCC(F)(F)F)nc1 (centres unmarked),2.662,1.154
CNC(=O)c1cccc(NCC(=O)Nc2cc(C)nn2C)c1C,25.17 & 2.748,-3.708
CCN1CC2(CC1=O)CN(Cc1ccncc1)CCN(C(=O)C(C)C)C2.O=C(O)C(F)(F)F.O=C(O)C(F)(F)F (centres unmarked),-17.6,-23.05
O=C(O)C(F)(F)F.O=C(O)C(F)(F)F.c1csc(CN2CCC3(COCCN(CC4CC4)C3)C2)n1 (centres unmarked),21.64 & 2.632,25.93
CNC(=O)C(NC(=O)c1ccn(C)c(=O)c1)c1ccccc1 (centres unmarked),8.653,-9.095
O=C(O)C(F)(F)F.[H][C@@]12CCN(c3cccnc3)C[C@]1([H])CN(C(=O)C1CCCC1)C2,7.995,-16.69
COC(=O)[C@H](C)NC(=O)c1cnc(Cc2ccc(F)cc2)s1,13.06,13.88 & 8.023
Cn1ccnc1SCCNc1nccc(C(F)(F)F)n1,7.034,7.336
CC(C)n1c(=O)c2sccc2n(CC(=O)Nc2ccccc2)c1=O,2.988,6.482
O=S(=O)(NCc1ccccc1)Nc1ccc(-n2cncn2)cc1,-2.134,-8.278
O=c1[nH]ncc(NCCOc2ccc3c(c2)OCO3)c1Cl,9.385,13.18
O=C(COCC1CC1)Nc1ncccc1O,32.92,-6.51
COCCN1CCC(C(=O)N(C)Cc2c[nH]c3ccc(C)cc23)C1 (centres unmarked),-8.733 & 2.807,6.725
CNCC(=O)N1CCCC1c1nc(C(C)C)no1 (centres unmarked),-10.94,-10.47 & 1.537
COc1cc(C)ccc1C(=O)N1CCC2(CCC(=O)N(C(C)C)C2)CC1,17.48,6.509
O=C(O)c1cnc(N2CCCC2)nc1COc1ccccc1,-3.974 & -1.124,9.855
Cc1cc(C)n(C2CN(C(=O)c3cn4ccsc4n3)C2)n1,-32.12 & 6.519,5.43
N#Cc1ccc(C(=O)NS(=O)(=O)c2ccc(C#N)c(Cl)c2)cc1,-4.061,10.02
CC(C)CN(Cc1ccc(O)c(C(=O)O)c1)Cc1cnn(C)c1,35.48,13.39
[H][C@@]12CCN(C(=O)C3CC3)[C@]1([H])C(=O)N(c1ccccc1)C(=O)N2,-1.43 & -2.494,9.615
Cc1ccc(CN(C)C(=O)CN2CCCC2Cn2cccn2)o1 (centres unmarked),8.48,9.375
COc1cccc(COCC(=O)N2CCCC(n3ccnc3C)C2)c1 (centres unmarked),-1.822,14.8
O=C(O)C(F)(F)F.O=C(c1cccnc1)N1CCC2(CC1)CC(Oc1ccccc1)CO2 (centres unmarked),-24.13,-12.84
CCOc1ccc(-n2nc(C)c(CC(C)=O)c2C)cc1C(N)=O,5.596,-8.266 & -7.887
Fc1cccc(Oc2nccnc2C2CCN(C3CCOCC3)CC2)c1,8.487,-9.014
NC(=O)c1c(NC(=O)CCC(=O)O)sc2c1CCc1ccccc1-2,12.54,-3.671
N#Cc1cccc(OCCN2CCCC(c3noc(C4CC4)n3)C2)c1 (centres unmarked),-9.688,9.031 & -6.169
CSCC(CCO)NC(=O)c1cccc(F)c1Cl (centres unmarked),-9.761,-18.27
CC(C)c1cc(C(=O)N[C@@H]2CC[C@@H](Oc3ccccc3)[C@@H]2O)on1,17.87,23.58 & 18.08
CC(C)c1nc(Cn2cncn2)n(-c2ccccn2)n1,-0.6071,-28.29
O=C1CC2(CCN(Cc3ccc(-c4ccccc4)s3)C2)C(=O)N1 (centres unmarked),-2.452,12.73
O=C(O)C(F)(F)F.O=C(c1ccco1)N1CCc2ncnc(Oc3cccnc3)c2CC1,5.753 & -5.944,9.803
O=C(c1ncccc1O)N1CCN(Cc2ccco2)C(CCO)C1 (centres unmarked),-3.851,-9.792
Cc1nnc2n1CCN(C(C(=O)N1CCCCC1)c1ccccc1)C2 (centres unmarked),1.261,7.291
[H][C@@]12CN(Cc3cccc(Oc4ccccc4)c3)C[C@]1(C(=O)O)CNC2=O,17.26,11
CCOCCN1CCN(CCOCC(F)(F)F)CC1,7.771 & 2.065,2.951

6 of the entries, repeated:

| Compound | Mtb glucose medium | Mtb cholesterol medium |
|---|---|---|
| `Cc1cc(S(=O)(=O)N(C)CC(N)=O)ccc1Br` | 20.26 | 13.26 |
| `O=C(COCC1CC1)Nc1ncccc1O` | 32.92 | -6.51 |
| `O=C(O)C(F)(F)F.O=C(O)C(F)(F)F.c1csc(CN2CCC3(COCCN(CC4CC4)C3)C2)n1` (centres unmarked) | 21.64 & 2.632 | 25.93 |
| `Cc1ccccc1-c1cc(C(=O)NCCN2CCCS2(=O)=O)[nH]n1` | 4.46 | 9.5 |
| `NC(=O)c1c(NC(=O)CCC(=O)O)sc2c1CCc1ccccc1-2` | 12.54 | -3.671 |
| `N#Cc1cccc(OCCN2CCCC(c3noc(C4CC4)n3)C2)c1` (centres unmarked) | -9.688 | 9.031 & -6.169 |